Experimental data as given in patent publication US20230280333A1, “FOREIGN SUBSTANCE INTRODUCTION CONSTRUCT AND USE THEREOF” (TOAGOSEI CO., LTD., priority 2022, published 2023).
Some results were stated once for a whole list of compounds, not compound by compound. Some ranges recur; such a range may be that of the whole group of compounds.

These substances were tested on HeLa cells (assay: Evaluation of the cell membrane permeability by flow cytometry). Settings: 10 μM, 20 hours.
Assay type: cell-based, human
Description: The cell membrane permeability of peptides 1 to 4 was analyzed using HeLa cells (an established cell line derived from human cervical cancer cells) as the eukaryotic cells.
HeLa cells were cultured on DMEM (Dulbecco's modified Eagle's medium (Cat. No. 043-30085, from FUJIFILM Wako Pure Chemical Corporation)) containing 10% FBS (fetal bovine serum), which is a general culture medium.
The HeLa cells attached to the culture plate were washed with PBS, a 0.25% trypsin/EDTA solution was then added, and incubation was carried out for 3 minutes at 37° C. After this incubation, the aforementioned DMEM containing 10% FBS was added and the trypsin was inactivated, and the cells were then sedimented by carrying out centrifugal separation for 5 minutes at 150×g. The supernatant produced by the centrifugal separation was removed, and the aforementioned DMEM containing 10% FBS was added to the sediment (cell pellet) to prepare a cell suspension containing approximately 2×10^5 cells/mL. The cells were seeded (approximately 2×10^5 cells/well) by the addition of 1 mL of this cell suspension to the wells of a commercial 6-well plate (Iwaki). In addition, the 2 mM sample solution 1 was diluted with the aforementioned DMEM containing 10% FBS to prepare a sample solution 1 in which the sample 1 concentration was 20 μM. 1 mL of this 20 sample solution 1 was added to a well (i.e., the concentration of sample 1 in the culture medium in the wells was brought to 10 μM and the DMSO concentration was brought to 0.5%). The cells were subsequently incubated for 20 hours at 37° C. under the condition of 5% CO2.
After this 20-hour incubation, the culture supernatant was removed from a well and the cells in the well were washed twice with 1 mL PBS. 200 μL of a 0.25% trypsin/EDTA solution was then added to the well and incubation was carried out for 3 minutes at 37° C. After this incubation, the trypsin was inactivated by the addition of 400 μL of the aforementioned DMEM containing 10% FBS to the well, and the cells were subsequently recovered by transferring the cell suspension in a well to a tube. The well was then washed by the further addition of 600 μL PBS to the well. The cells that had remained in the well were recovered to the tube by transferring the PBS in the well to the tube. Centrifugal separation was run on this tube for 5 minutes using conditions of 4° C. and 210×g. After the centrifugal separation, the supernatant was removed, the sediment (cell pellet) was suspended (washed) with 1 mL of PBS, and centrifugal separation was carried out using the same conditions as before. After this procedure had been performed twice, the supernatant was removed to obtain cells (cell pellet) that had been cultured on a sample 1-containing culture medium.
The cell permeability of sample 1 was analyzed using the resulting cells (cell pellet) and a flow cytometer. An On-Chip Flow Cytometer (On-chip Biotechnologies Co., Ltd.) was used for the flow cytometer.
For this analysis, the cell pellet obtained as described above was suspended in 50 μL PBS. To this suspension was added 50 μL of Sample Buffer 2× for use with the indicated flow cytometer to prepare a cell suspension for submission to analysis.
Gating was performed using this flow cytometer based on forward scatter (FSC) and side scatter (SSC); the gating was set for the cell population that was the target of the analysis; and the fluorescent intensity was measured for the cell population within this gating. The analysis was performed so the cell count for this cell population reached at least 10,000 or more. The FL2 fluorescence detector (optimal detection wavelength around 543 nm) on the indicated flow cytometer, which could detect the fluorescence wavelength of FAM, was used to measure the fluorescent intensity. […]

Row | Substance | MFI compared between examples, in words
1 | Ac-KKRTLRKKKRKKR-FAM [Example 4] | higher in Examples 1 to 4 than in Example 5
2 | Ac-KKRTLRKKKRKKRWPC-FAM (N-terminal acetyl; C-terminal FAM) [Example 2, foreign substance introduction construct provided with peptide 2, FAM bonded to the C-terminal side] | higher in Examples 1 to 4 than in Example 5
3 | Ac-KKRTLRKSNRKKR-FAM [Example 3] | higher in Examples 1 to 4 than in Example 5

Same assay, conditions: FAM-labelled constructs, 10 μM, 20 hours

Row | Substance | cell membrane permeability, conclusion in words
4 | KKRTLRKKKRKKR (N-terminal acetylation) [Peptide 4, variant of LIM kinase 2 NoLS; synthesized with N-terminal acetylation] | have a cell membrane permeability
5 | KKRTLRKKKRKKRWPC (N-terminal acetylation) [Peptide 2, carrier peptide fragment; synthesized with N-terminal α-amino group acetylated] | have a cell membrane permeability
6 | KKRTLRKSNRKKR (N-terminal acetylation) [Peptide 3, variant of LIM kinase 2 NoLS; synthesized with N-terminal acetylation] | have a cell membrane permeability
7 | KKRTLRKSNRKKRWPC (N-terminal acetylation) [Peptide 1, carrier peptide fragment; synthesized with N-terminal α-amino group acetylated] | have a cell membrane permeability
